Data published in the supplement of paper PMC7411640.
Structures can show the parent of a compound that is named as a salt. This is one part of the list. Most values lie within the scatter of the assay; repeated measurements hardly agree.

System: MDA-MB-468
Experiment: phospho-S6 immunofluorescence (DAPI-normalised), per-plate z-score; higher = higher phospho-S6 signal (less pathway suppression)
Conditions: 24 h
Procedure: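 GPCR-targeted compound library (MedChemExpress HY-L006) tested on MDA-MB-468 PTEN-null TNBC cells in 384-well plates at 0.1, 1 or 10 uM, combined with vehicle, GDC0941 450 nM or lapatinib 1 uM, for 24 h. Phospho-S6 (S240/244) immunofluorescence normalised to DAPI and expressed as a per-plate z-score; values are the mean of biological triplicates.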

[1] = compound 0.1 µM, co-treatment: GDC0941 450 nM
[2] = compound 0.1 µM, co-treatment: lapatinib 1 uM
[3] = compound 0.1 µM, co-treatment: vehicle
[4] = compound 1 µM, co-treatment: GDC0941 450 nM
[5] = compound 1 µM, co-treatment: lapatinib 1 uM
[6] = compound 1 µM, co-treatment: vehicle
[7] = compound 10 µM, co-treatment: GDC0941 450 nM
[8] = compound 10 µM, co-treatment: lapatinib 1 uM
[9] = compound 10 µM, co-treatment: vehicle

SMILES | phospho-S6 immunofluorescence (z-score) [1] | phospho-S6 immunofluorescence (z-score) [2] | phospho-S6 immunofluorescence (z-score) [3] | phospho-S6 immunofluorescence (z-score) [4] | phospho-S6 immunofluorescence (z-score) [5] | phospho-S6 immunofluorescence (z-score) [6] | phospho-S6 immunofluorescence (z-score) [7] | phospho-S6 immunofluorescence (z-score) [8] | phospho-S6 immunofluorescence (z-score) [9]
CN(C)C(=O)C(CCN1CCC(O)(c2ccc(Cl)cc2)CC1)(c1ccccc1)c1ccccc1 [Loperamide (hydrochloride)] | 0.38 | 0.48 | 1.3 | 0.49 | -0.68 | 1.01 | -1.31 | -3.22 | -0.37
COc1ccc(CNC(=O)c2cc(-c3cncc(C)c3)ncc2-c2nccs2)nc1OC | -0.38 | -0.18 | 0.2 | -0.6 | 0.31 | -0.04 | -0.61 | -0.5 | 0.26
CC(C)C[C@H](NC(=O)[C@H](CC(C)C)NC(=O)[C@H](Cc1ccccc1)NC(=O)[C@@H](N)CO)C(=O)N[C@@H](CCCN=C(N)N)C(=O)N[C@@H](CC(N)=O)C(=O)O | -0.12 | 0.4 | 0.22 | -0.12 | -0.24 | -0.11 | -1.01 | -0.25 | 0.03
C[C@H]1C[C@H]2[C@@H]3CCC4=CC(=O)C=C[C@]4(C)[C@H]3C(=O)C[C@]2(C)[C@@]1(O)C(=O)CO [Meprednisone] | 0.2 | -1.69 | -0.35 | 0.86 | 0.29 | 0.77 | 0.11 | -0.5 | -0.52
CN1CCN(CCCN2c3ccccc3Sc3ccc(C(F)(F)F)cc32)CC1 [Trifluoperazine (dihydrochloride)] | 1.14 | -0.57 | 0.49 | 1.46 | -2.17 | 0.64 | -4.47 | -5.54 | -4.02
O=C(CCCN1CCN(c2ccccn2)CC1)c1ccc(F)cc1 [Azaperone] | 0.85 | -0.35 | 0.06 | 1.35 | 0.01 | 0.67 | 0.08 | 0.77 | 0.8
CN1CCN(CCc2ccc(Cl)c(Cl)c2)CC1 [BD1063 (dhydrochloride)] | -0.3 | -0.37 | -0.36 | 0.37 | -0.95 | -1.6 | 0.51 | -1.56 | -0.49
CN1[C@@H]2CC[C@H]1C[C@@H](OC(c1ccccc1)c1ccccc1)C2 [Benztropine (mesylate)] | 0.11 | -0.73 | 0.17 | 0.04 | -0.16 | -0.44 | 1.67 | -1.69 | 0.29
O=c1ccccn1CC1(O)CCN(Cc2ccccc2)CC1 | 0.77 | 0.92 | 0.27 | 0.42 | -0.12 | -0.63 | 0.52 | -0.19 | 0.48
Cc1cc(Cn2cnc3c2CC(C(=O)O)N(C(=O)C(c2ccccc2)c2ccccc2)C3)ccc1N(C)C (stereo unspecified) | -0.16 | 1.07 | 0.29 | -0.83 | -0.31 | 0.37 | -0.71 | 0.17 | 0.29
CCC(=O)OCC(=O)[C@@]1(OC(=O)CC)[C@@H](C)C[C@H]2[C@@H]3CCC4=CC(=O)C=C[C@]4(C)[C@@]3(Cl)[C@@H](O)C[C@@]21C [Beclometasone dipropionate] | -1.48 | 1.63 | 1.22 | 0.15 | 0.78 | 0.65 | 0.45 | 0.54 | 0.15
c1cnc(NCc2ccc(CNc3ncccn3)cc2)nc1 | 0.6 | -0.69 | -0.58 | -0.26 | -0.6 | -1.29 | -0.12 | -0.26 | -0.11
CC(C)(C)C1CCC(N(Cc2ccc(C(=O)NCCC(=O)O)cc2)C(=O)Nc2ccc(OC(F)(F)F)cc2)CC1 (stereo unspecified) | -1.24 | 1 | -1.45 | -2.44 | -0.29 | -2.07 | -3.4 | -4.75 | -1.64
CC(C)(C)NCC(O)COc1cccc2c1CCC(=O)N2 (stereo unspecified) [Carteolol (hydrochloride)] | 0.28 | 0.83 | 0.16 | 0.9 | 0.86 | 0.35 | 0.64 | 0.45 | -0.38
Cc1ccc(C(=O)Nc2ccc(S(=O)(=O)O)c3cc(S(=O)(=O)O)cc(S(=O)(=O)O)c23)cc1NC(=O)c1cccc(NC(=O)Nc2cccc(C(=O)Nc3cc(C(=O)Nc4ccc(S(=O)(=O)O)c5cc(S(=O)(=O)O)cc(S(=O)(=O)O)c45)ccc3C)c2)c1 [Suramin (sodium salt)] | -0.02 | -0.56 | -0.76 | -0.2 | -0.35 | -0.23 | 0.54 | 1.39 | -0.09
O=C1c2cccc3c2[C@H](CCC3)CN1[C@@H]1CN2CCC1CC2 [Palonosetron (Hydrochloride)] | -0.56 | 0.67 | 0.62 | -0.23 | 1.2 | -0.84 | -0.7 | 0.4 | -0.33
COc1ccccc1N1CCN(CCCCN2C(=O)c3ccccc3C2=O)CC1 [NAN-190 (hydrobromide)] | 0.5 | -0.69 | 0.16 | 0.06 | 0.45 | 0.78 | 0.76 | -0.29 | 0.19
C[C@H](NC(=O)c1cc(Cl)ccc1Oc1ccc(F)cc1)c1ccc(C(=O)O)cc1 | 0.95 | 0.72 | 0.69 | 0.54 | 0.3 | 0.73 | -0.64 | 0.18 | 0.3
OCc1ccc(-c2nn(Cc3ccccc3)c3ccccc23)o1 [Lificiguat] | -0.71 | -0.47 | -0.86 | 3.17 | 3.87 | -2.74 | 3.23 | 2.82 | 0.54
c1ccc2c(c1)N=C(N1CCNCC1)c1ccccc1N2 [DREADD agonist 21] | -0.36 | -0.5 | -0.61 | -0.02 | -1.5 | -0.21 | -0.11 | -1.74 | -0.53

Part of the list above, as tab-separated lines:
SMILES	phospho-S6 immunofluorescence (z-score) [1]	phospho-S6 immunofluorescence (z-score) [2]	phospho-S6 immunofluorescence (z-score) [3]	phospho-S6 immunofluorescence (z-score) [4]	phospho-S6 immunofluorescence (z-score) [5]	phospho-S6 immunofluorescence (z-score) [6]	phospho-S6 immunofluorescence (z-score) [7]	phospho-S6 immunofluorescence (z-score) [8]	phospho-S6 immunofluorescence (z-score) [9]
CN(C)C(=O)C(CCN1CCC(O)(c2ccc(Cl)cc2)CC1)(c1ccccc1)c1ccccc1 [Loperamide (hydrochloride)]	0.38	0.48	1.3	0.49	-0.68	1.01	-1.31	-3.22	-0.37
COc1ccc(CNC(=O)c2cc(-c3cncc(C)c3)ncc2-c2nccs2)nc1OC	-0.38	-0.18	0.2	-0.6	0.31	-0.04	-0.61	-0.5	0.26
CC(C)C[C@H](NC(=O)[C@H](CC(C)C)NC(=O)[C@H](Cc1ccccc1)NC(=O)[C@@H](N)CO)C(=O)N[C@@H](CCCN=C(N)N)C(=O)N[C@@H](CC(N)=O)C(=O)O	-0.12	0.4	0.22	-0.12	-0.24	-0.11	-1.01	-0.25	0.03

Carrying on.

SMILES | phospho-S6 immunofluorescence (z-score) [1] | phospho-S6 immunofluorescence (z-score) [2] | phospho-S6 immunofluorescence (z-score) [3] | phospho-S6 immunofluorescence (z-score) [4] | phospho-S6 immunofluorescence (z-score) [5] | phospho-S6 immunofluorescence (z-score) [6] | phospho-S6 immunofluorescence (z-score) [7] | phospho-S6 immunofluorescence (z-score) [8] | phospho-S6 immunofluorescence (z-score) [9]
CCC(=O)NC[C@@H]1C[C@H]1c1cccc2c1CCO2 [Tasimelteon] | 0.9 | -0.28 | 0.02 | -0.29 | 0.79 | 0.38 | -1.06 | -0.25 | 0.27
C[C@]12CCC(=O)C=C1CC[C@@H]1[C@@H]2[C@@H](O)C[C@@]2(C)[C@H]1CC[C@]2(O)C(=O)CO [Hydrocortisone] | 0.49 | 1.42 | 0.52 | -0.97 | 1.3 | 0.69 | -4.8 | -4.13 | -2.96
CCCN[C@H]1CCc2nc(N)sc2C1 [Pramipexole (dihydrochloride)] | 0.38 | 0.82 | 0.89 | 0.27 | 0.3 | 0.05 | 0.87 | 0.31 | 0.17
Cc1c(Cc2ccc3ccccc3n2)c2cc(F)ccc2n1CC(=O)O | 0.12 | 0.99 | 0.23 | 0.53 | 0.7 | -0.04 | 0 | 0.39 | 0.58
CN1CCC(=C2c3ccccc3CCn3c(C=O)cnc32)CC1 [Alcaftadine] | -0.17 | 0.86 | -1.14 | -0.86 | 0.15 | -1.42 | -0.88 | 1.09 | -0.66
COC(=O)[C@@H]1[C@H]2C[C@H]3c4[nH]c5ccccc5c4CCN3C[C@@H]2CC[C@@H]1O [Yohimbine (Hydrochloride)] | 0.53 | 1.29 | 0.93 | 1.19 | 0.43 | 0.59 | 0.62 | 0.56 | 1.59
OCC1OC(n2cnc3c(NC4CCCCC4)ncnc32)C(O)C1O (stereo unspecified) [N6-Cyclohexyladenosine] | 1.54 | 0.8 | 0.35 | 1.32 | 0.72 | 1.38 | -0.37 | 1.37 | 0.6
CCCNS(=O)(=O)Nc1ncnc(OCCOc2ncc(Br)cn2)c1-c1ccc(Br)cc1 [Macitentan] | 0.74 | 0.69 | -0.12 | 0.06 | -0.21 | 0.45 | 0.32 | 0.71 | -0.16
CNCCc1ccccn1 [Betahistine (dihydrochloride)] | 0.03 | -0.29 | -0.86 | -0.29 | -0.79 | -0.98 | -1.02 | 0.1 | -0.72
Cc1ccc(Sc2ccccc2N2CCNCC2)c(C)c1 [Vortioxetine (hydrobromide)] | 0.31 | -0.73 | -0.99 | 0.02 | -1.59 | -0.71 | -5.79 | -11.4 | -9.37
CCCC(=O)OC(CNC(C)(C)C)COc1nsnc1N1CCOCC1 (racemic) [(RS)-Butyryltimolol] | -0.48 | -1.57 | -1.23 | 0.16 | -1.35 | -0.43 | 0.09 | -0.58 | -0.47
C[C@](N)(Cc1ccc(O)c(O)c1)C(=O)O | 0.3 | -0.77 | 0.14 | 0.65 | -0.62 | 0.21 | -0.58 | 0.11 | -0.1
CCC(=O)O[C@]1(C(=O)CCl)[C@@H](C)C[C@H]2[C@@H]3CCC4=CC(=O)C=C[C@]4(C)[C@@]3(F)[C@@H](O)C[C@@]21C [Clobetasol propionate] | 0.05 | 1.13 | 1.43 | -1.31 | 1.19 | 0.63 | -0.19 | -0.09 | 0.7
CN(C)CC1CCOC1(c1ccccc1)c1ccccc1 (stereo unspecified) [AVex-73 hydrochloride] | 0.89 | 0.38 | -0.02 | 0.01 | -0.94 | 1.31 | -0.82 | -1.17 | 0.2
O=C(O)COc1cccc(CN(Cc2ccc(-n3cccn3)cc2)S(=O)(=O)c2cccnc2)c1 [Taprenepag] | 0.79 | 0.53 | 0.23 | -0.31 | 0.33 | -0.28 | -0.91 | 0.34 | -0.73
Cc1ccc(N(CC2=NCCN2)c2cccc(O)c2)cc1 [Phentolamine (mesylate)] | -0.5 | -0.62 | -1.04 | -1.23 | 0.88 | -1.11 | -0.17 | 1.1 | -0.58
CN(C)CCOC(c1ccccc1)c1ccccc1.Cn1c(=O)c2[nH]c(Cl)nc2n(C)c1=O [Dimenhydrinate] | -0.62 | 0.9 | 0.48 | -0.44 | -1.06 | -2.22 | -1.22 | 0.01 | -0.02
CC(C)c1cc(-c2ccc(F)c3ccccc23)nc(N)n1 | -0.08 | -0.27 | 0.58 | 0.05 | 1.62 | 0.09 | -1.03 | 1.27 | 1.08
CCOC(=O)N1CCC(NCCNC(=O)c2ccccc2C)CC1 | 0.6 | 1 | 0.55 | 0.31 | -0.3 | 0.83 | 0.96 | -0.15 | 1.13
